Assay results taken from patent publication US7786043B2, “2-(pyridin-2-yl)-pyrimidines and their use for controlling harmful fungi” (BASF Aktiengesellschaft, priority 2004, dated 2010).
Some entries share one result that the patent states for a list of compounds. For at least one compound, name, drawing or mass did not settle the structure.

These compounds were tested on Pyrenophora [syn. Drechslera] teres (assay: Use Example 7: activity against net blotch of barley caused by Pyrenophora teres, 1 day protective application). Conditions: 63 ppm, barley seedlings, rated after 6 days, untreated plants 90% infected.
Type: in vivo
With Cc1ccc(-c2ncc3c(n2)CC(C)(C)CC3)nc1-c1cccc(F)c1F [Example 122] the “infection (infected leaf area)” value was “at most 20%”.

These compounds were tested on Phytophthora infestans (assay: not given). Conditions: 63 ppm, tomato plants, protective, rated after 6 days; untreated plants 90% infected.
Type: in vivo
In the case of Cc1ccc(-c2nc(-c3ncc4c(n3)CC(C)(C)CC4)ccc2C)cc1 [Example 98], the infection is reported as “at most 20%”. With Cc1ccc(-c2ncc3c(n2)CC(C)(C)CC3)nc1-c1ccccc1F [Example 117] the infection was “at most 20%”. Cc1ccc(-c2ncc3c(n2)CC(C)(C)CC3)nc1-c1ccccc1Cl [Example 118] was tested, and the infection was “at most 20%”. For Cc1ccccc1-c1nc(-c2ncc3c(n2)CC(C)(C)CC3)ccc1C [Example 119], the infection was “at most 20%”. With COc1ccccc1-c1nc(-c2ncc3c(n2)CC(C)(C)CC3)ccc1C [Example 120] the infection was “at most 20%”. In the case of Cc1ccc(-c2ncc3c(n2)CC(C)(C)CC3)nc1-c1cccc(F)c1F [Example 122], the infection is reported as “at most 20%”. Cc1ccc(-c2ncc3c(n2)CC(C)(C)CC3)nc1-c1ccc(F)cc1F [Example 124] was tested, and the infection was “at most 20%”. In the case of Cc1ccc(-c2nc(-c3ncc4c(n3)CC(C)(C)CC4)ccc2C)c(F)c1 [Example 125], the infection is reported as “at most 20%”. In the case of Cc1cc(F)ccc1-c1nc(-c2ncc3c(n2)CC(C)(C)CC3)ccc1C [Example 126], the infection is reported as “at most 20%”. In the case of COc1ccc(-c2nc(-c3ncc4c(n3)CC(C)(C)CC4)ccc2C)c(OC)c1 [Example 127], the infection is reported as “at most 20%”. In the case of Cc1ccc(-c2ncc3c(n2)CC(C)(C)CC3)nc1-c1cc(F)ccc1F [Example 128], the infection is reported as “at most 20%”. Cc1ccc(-c2ncc3c(n2)CC(C)(C)CC3)nc1-c1cc(Cl)ccc1Cl [Example 129] was tested, and the infection was “at most 20%”. Cc1ccc(C)c(-c2nc(-c3ncc4c(n3)CC(C)(C)CC4)ccc2C)c1 [Example 130] was tested, and the infection was “at most 20%”. In the case of Cc1cccc(-c2nc(-c3ncc4c(n3)CC(C)(C)CC4)ccc2C)c1 [Example 133], the infection is reported as “at most 20%”. For Cc1ccc(-c2ncc3c(n2)CC(C)(C)CC3)nc1-c1cccc(C(F)(F)F)c1 [Example 134], the infection was “at most 20%”. For COc1cccc(-c2nc(-c3ncc4c(n3)CC(C)(C)CC4)ccc2C)c1 [Example 135], the infection was “at most 20%”. With CSc1cccc(-c2nc(-c3ncc4c(n3)CC(C)(C)CC4)ccc2C)c1 [Example 136] the infection was “at most 20%”. With Cc1ccc(-c2ncc3c(n2)CC(C)(C)CC3)nc1-c1cccc(OC(C)C)c1 [Example 138] the infection was “at most 20%”. CC(=O)c1cccc(-c2nc(-c3ncc4c(n3)CC(C)(C)CC4)ccc2C)c1 [Example 139] was tested, and the infection was “at most 20%”. In the case of CCON=C(C)c1cccc(-c2nc(-c3ncc4c(n3)CC(C)(C)CC4)ccc2C)c1 [Example 141], the infection is reported as “at most 20%”. COC(=O)c1cccc(-c2nc(-c3ncc4c(n3)CC(C)(C)CC4)ccc2C)c1 [Example 142] was tested, and the infection was “at most 20%”. In the case of Cc1ccc(-c2ncc3c(n2)CC(C)(C)CC3)nc1-c1ccc(F)c(F)c1 [Example 143], the infection is reported as “at most 20%”. Cc1ccc(-c2ncc3c(n2)CC(C)(C)CC3)nc1-c1ccc(Cl)c(Cl)c1 [Example 144] was tested, and the infection was “at most 20%”. For Cc1ccc(-c2nc(-c3ncc4c(n3)CC(C)(C)CC4)ccc2C)cc1C [Example 145], the infection was “at most 20%”. COc1ccc(-c2nc(-c3ncc4c(n3)CC(C)(C)CC4)ccc2C)cc1OC [Example 146] was tested, and the infection was “at most 20%”. Cc1ccc(-c2nc(-c3ncc4c(n3)CC(C)(C)CC4)ccc2C)cc1F [Example 147] was tested, and the infection was “at most 20%”. With Cc1ccc(-c2ncc3c(n2)CC(C)(C)CC3)nc1-c1ccc(F)c(Cl)c1 [Example 150] the infection was “at most 20%”. For CCOc1ccc(-c2nc(-c3ncc4c(n3)CC(C)(C)CC4)ccc2C)cc1Cl [Example 151], the infection was “at most 20%”. In the case of Cc1ccc(-c2ncc3c(n2)CC(C)(C)CC3)nc1-c1ccc(OC(C)C)c(Cl)c1 [Example 152], the infection is reported as “at most 20%”. With Cc1ccc(-c2ncc3c(n2)CC(C)(C)CC3)nc1-c1cc(Cl)cc(Cl)c1 [Example 156] the infection was “at most 20%”. With Cc1cc(C)cc(-c2nc(-c3ncc4c(n3)CC(C)(C)CC4)ccc2C)c1 [Example 157] the infection was “at most 20%”. With Cc1ccc(-c2ncc3c(n2)CC(C)(C)CC3)nc1-c1cc(F)c(F)c(F)c1 [Example 159] the infection was “at most 20%”.
